Laboratory results: PubChem BioAssay AID1671195 (Yale University, 2021)
Purpose: 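Knockdowns that increase or decrease uptake of fluorescent LDL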 (primary screen). System: human Huh7 hepatoma cells. Knock-down reagent: siRNA pool against human genes, 18 nM. Timing: about 2 to 2.5 days of knockdown, then 8 h LDL uptake. Treatment: DiI-labelled LDL at 30 µg/ml for 8 h, in lipoprotein-deficient serum medium. Measurement: 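Per-cell DiI-LDL intensity by automated imaging; well means scaled to the plate median and given as a robust z-score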. Direction: robust z-score: higher = more LDL uptake after knockdown. Rule for the call: 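a gene counts as active if at least two replicate z-scores exceed ±2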.
In all, the deposit lists about 22,000 reagents; shown is an unselected part. About 1,510 of all reagents (6.9%) count as active. 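Active includes knockdowns raising or lowering LDL uptake; positive z-scores mean more uptake, negative mean less.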

What did the screen give for KIAA1671?
robust z-score, replicate 1: 0.308; robust z-score, replicate 2: 0.276; robust z-score, replicate 3: -0.276; activity call: inactive

For G2E3 (G2/M-phase specific E3 ubiquitin protein ligase), what was measured?
robust z-score, replicate 1: -0.69; robust z-score, replicate 2: -0.31; robust z-score, replicate 3: -1.81; activity call: inactive

Which result is listed for MRPS17 (mitochondrial ribosomal protein S17)?
robust z-score, replicate 1: 0.903; robust z-score, replicate 2: 1.38; robust z-score, replicate 3: 1.41; activity call: inactive

How did the screen score FLJ37201 (tigger transposable element derived 2 pseudogene)?
robust z-score, replicate 1: -0.114; robust z-score, replicate 2: 0.0484; robust z-score, replicate 3: -0.198; activity call: inactive

What is on record for LOC390638 (golgin A2 pseudogene)?
robust z-score, replicate 1: -0.525; robust z-score, replicate 2: -1.06; robust z-score, replicate 3: -1.48; activity call: inactive

Which result is listed for SLC16A14?
robust z-score, replicate 1: 1.37; robust z-score, replicate 2: 1.71; robust z-score, replicate 3: 1.62; activity call: inactive

For DNAJC16 (DnaJ heat shock protein family (Hsp40) member C16), how do the results read?
robust z-score, replicate 1: -0.616; robust z-score, replicate 2: -0.534; robust z-score, replicate 3: -0.537; activity call: inactive

What is on record for TNFAIP3 (TNF alpha induced protein 3)?
robust z-score, replicate 1: -1.13; robust z-score, replicate 2: -1.41; robust z-score, replicate 3: -1.5; activity call: inactive

What is on record for CCNE2 (cyclin E2)?
robust z-score, replicate 1: -0.754; robust z-score, replicate 2: 0.509; robust z-score, replicate 3: -0.728; activity call: inactive

With THAP3 (THAP domain containing 3), what was measured?
robust z-score, replicate 1: 0.199; robust z-score, replicate 2: 0.234; robust z-score, replicate 3: 0.325; activity call: inactive

With NDN (necdin, MAGE family member), how do the results read?
robust z-score, replicate 1: 0.908; robust z-score, replicate 2: 0.512; robust z-score, replicate 3: 1.55; activity call: inactive

With PSMC3IP (PSMC3 interacting protein), what does the deposit list?
robust z-score, replicate 1: -1.03; robust z-score, replicate 2: -0.0344; robust z-score, replicate 3: -1.95; activity call: inactive

How did the screen score SGF29 (SAGA complex associated factor 29)?
robust z-score, replicate 1: -0.493; robust z-score, replicate 2: 0.0343; robust z-score, replicate 3: -0.428; activity call: inactive

With PERM1 (PPARGC1 and ESRR induced regulator, muscle 1), how do the results read?
robust z-score, replicate 1: 1.04; robust z-score, replicate 2: 0.71; robust z-score, replicate 3: 0.758; activity call: inactive

With RPS15A (ribosomal protein S15a), what was measured?
robust z-score, replicate 1: 0.391; robust z-score, replicate 2: 0.038; robust z-score, replicate 3: 1.15; activity call: inactive

With SLC26A6, how do the results read?
robust z-score, replicate 1: -0.454; robust z-score, replicate 2: -0.546; robust z-score, replicate 3: -0.0307; activity call: inactive

For TNR (tenascin R), what does the deposit list?
robust z-score, replicate 1: 0.226; robust z-score, replicate 2: 0.791; robust z-score, replicate 3: 0.94; activity call: inactive

For LOC729995, how do the results read?
robust z-score, replicate 1: -1.16; robust z-score, replicate 2: -0.96; robust z-score, replicate 3: -1.1; activity call: inactive

3 entries from above, reformatted.
FLJ37201 (tigger transposable element derived 2 pseudogene)
- robust z-score, replicate 1: -0.114
- robust z-score, replicate 2: 0.0484
- robust z-score, replicate 3: -0.198
- activity call: inactive

LOC390638 (golgin A2 pseudogene)
- robust z-score, replicate 1: -0.525
- robust z-score, replicate 2: -1.06
- robust z-score, replicate 3: -1.48
- activity call: inactive

SLC16A14
- robust z-score, replicate 1: 1.37
- robust z-score, replicate 2: 1.71
- robust z-score, replicate 3: 1.62
- activity call: inactive

The results go on:
Which result is listed for CLIP1 (CAP-Gly domain containing linker protein 1)?
robust z-score, replicate 1: -0.219; robust z-score, replicate 2: 0.373; robust z-score, replicate 3: -0.00108; activity call: inactive

For SULT1A1 (sulfotransferase family 1A member 1), how do the results read?
robust z-score, replicate 1: -0.84; robust z-score, replicate 2: -0.883; robust z-score, replicate 3: -0.788; activity call: inactive

With PIK3IP1 (phosphoinositide-3-kinase interacting protein 1), what was measured?
robust z-score, replicate 1: -0.38; robust z-score, replicate 2: -0.908; robust z-score, replicate 3: -0.942; activity call: inactive

How did the screen score ASB1 (ankyrin repeat and SOCS box containing 1)?
robust z-score, replicate 1: -0.153; robust z-score, replicate 2: 0.432; robust z-score, replicate 3: 1.05; activity call: inactive

With DDX21 (DExD-box helicase 21), what was measured?
robust z-score, replicate 1: -0.667; robust z-score, replicate 2: 0.245; robust z-score, replicate 3: 0.00366; activity call: inactive

How did the screen score IST1 (IST1 factor associated with ESCRT-III)?
robust z-score, replicate 1: -0.112; robust z-score, replicate 2: -0.495; robust z-score, replicate 3: 0.306; activity call: inactive

For PIR (pirin), how do the results read?
robust z-score, replicate 1: -0.361; robust z-score, replicate 2: -1.51; robust z-score, replicate 3: -0.742; activity call: inactive

For OR52K2 (olfactory receptor family 52 subfamily K member 2), what was measured?
robust z-score, replicate 1: 0.514; robust z-score, replicate 2: 0.298; robust z-score, replicate 3: -0.124; activity call: inactive

For LRRC8B (leucine rich repeat containing 8 VRAC subunit B), how do the results read?
robust z-score, replicate 1: 0.291; robust z-score, replicate 2: -0.327; robust z-score, replicate 3: 0.788; activity call: inactive

For GLUD1 (glutamate dehydrogenase 1), how do the results read?
robust z-score, replicate 1: -0.963; robust z-score, replicate 2: -1.01; robust z-score, replicate 3: -1.14; activity call: inactive

Which result is listed for ABCA12 (ATP binding cassette subfamily A member 12)?
robust z-score, replicate 1: 0.128; robust z-score, replicate 2: 0.948; robust z-score, replicate 3: 0.672; activity call: inactive

For ITGB1BP2 (integrin subunit beta 1 binding protein 2), how do the results read?
robust z-score, replicate 1: 1.69; robust z-score, replicate 2: 2.3; robust z-score, replicate 3: 1.01; activity call: inactive
